Data taken from the supplement of paper PMC10849652.
This is one part of the list.

Protein sequences, listed by entry. Tags and fused reporters are not part of them. Lines headed by an entry give the natural chain unless they say otherwise; changes in a name come on top.
UniProt Q2M3R5: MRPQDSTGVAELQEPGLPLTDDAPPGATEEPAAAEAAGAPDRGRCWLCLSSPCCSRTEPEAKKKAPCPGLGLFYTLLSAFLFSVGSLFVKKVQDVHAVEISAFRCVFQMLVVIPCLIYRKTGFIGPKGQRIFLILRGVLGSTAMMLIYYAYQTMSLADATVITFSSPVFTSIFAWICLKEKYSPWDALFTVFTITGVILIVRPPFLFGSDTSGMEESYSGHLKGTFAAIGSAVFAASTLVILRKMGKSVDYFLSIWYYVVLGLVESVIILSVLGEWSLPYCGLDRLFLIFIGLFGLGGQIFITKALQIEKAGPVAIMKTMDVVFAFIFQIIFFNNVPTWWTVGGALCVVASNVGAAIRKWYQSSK
UniProt Q5SVS4: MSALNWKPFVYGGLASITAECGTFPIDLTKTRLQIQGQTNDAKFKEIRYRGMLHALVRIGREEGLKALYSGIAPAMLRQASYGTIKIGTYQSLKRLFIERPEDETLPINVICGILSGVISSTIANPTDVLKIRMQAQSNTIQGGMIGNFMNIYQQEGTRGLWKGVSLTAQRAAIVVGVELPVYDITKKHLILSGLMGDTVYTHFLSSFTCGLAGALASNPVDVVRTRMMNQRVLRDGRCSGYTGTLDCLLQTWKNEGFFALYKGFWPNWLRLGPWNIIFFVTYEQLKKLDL
UniProt Q9NQQ7: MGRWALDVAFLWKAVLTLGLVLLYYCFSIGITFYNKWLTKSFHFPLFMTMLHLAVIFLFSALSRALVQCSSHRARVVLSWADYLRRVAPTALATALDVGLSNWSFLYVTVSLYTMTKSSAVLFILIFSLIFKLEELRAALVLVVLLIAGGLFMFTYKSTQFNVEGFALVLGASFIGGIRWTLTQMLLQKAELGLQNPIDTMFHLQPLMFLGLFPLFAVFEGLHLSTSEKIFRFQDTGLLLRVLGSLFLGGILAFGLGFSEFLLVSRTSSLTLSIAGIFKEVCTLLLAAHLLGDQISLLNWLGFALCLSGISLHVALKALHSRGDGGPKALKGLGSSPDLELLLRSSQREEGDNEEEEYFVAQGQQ
UniProt Q8IWA5: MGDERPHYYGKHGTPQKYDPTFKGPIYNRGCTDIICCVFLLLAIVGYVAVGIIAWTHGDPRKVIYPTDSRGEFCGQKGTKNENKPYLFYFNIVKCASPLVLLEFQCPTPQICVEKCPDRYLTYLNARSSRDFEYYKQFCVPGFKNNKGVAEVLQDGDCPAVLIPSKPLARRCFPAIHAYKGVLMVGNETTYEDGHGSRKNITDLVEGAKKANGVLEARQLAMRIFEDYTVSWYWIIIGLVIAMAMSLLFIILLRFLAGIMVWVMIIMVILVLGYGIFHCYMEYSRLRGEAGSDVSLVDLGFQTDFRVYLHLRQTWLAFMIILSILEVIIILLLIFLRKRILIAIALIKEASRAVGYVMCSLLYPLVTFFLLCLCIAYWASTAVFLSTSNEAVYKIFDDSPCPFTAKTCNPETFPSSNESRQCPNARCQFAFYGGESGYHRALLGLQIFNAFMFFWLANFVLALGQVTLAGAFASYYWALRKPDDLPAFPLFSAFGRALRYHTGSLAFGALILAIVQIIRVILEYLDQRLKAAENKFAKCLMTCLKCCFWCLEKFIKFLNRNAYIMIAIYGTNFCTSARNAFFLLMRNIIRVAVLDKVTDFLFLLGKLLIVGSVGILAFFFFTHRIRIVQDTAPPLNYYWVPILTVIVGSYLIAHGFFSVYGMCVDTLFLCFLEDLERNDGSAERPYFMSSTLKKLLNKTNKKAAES
UniProt P0CK96: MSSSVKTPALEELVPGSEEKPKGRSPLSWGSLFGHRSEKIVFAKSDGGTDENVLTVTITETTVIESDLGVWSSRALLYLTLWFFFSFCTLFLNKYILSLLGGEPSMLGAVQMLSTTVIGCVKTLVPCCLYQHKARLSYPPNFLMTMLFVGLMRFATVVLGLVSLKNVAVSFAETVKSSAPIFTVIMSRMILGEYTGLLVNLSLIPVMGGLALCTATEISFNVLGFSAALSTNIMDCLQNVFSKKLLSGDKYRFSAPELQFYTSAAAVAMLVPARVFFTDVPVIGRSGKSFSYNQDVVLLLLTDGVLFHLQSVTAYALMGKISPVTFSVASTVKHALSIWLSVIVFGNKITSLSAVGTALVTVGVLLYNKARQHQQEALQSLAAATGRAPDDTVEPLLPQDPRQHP
UniProt O76082: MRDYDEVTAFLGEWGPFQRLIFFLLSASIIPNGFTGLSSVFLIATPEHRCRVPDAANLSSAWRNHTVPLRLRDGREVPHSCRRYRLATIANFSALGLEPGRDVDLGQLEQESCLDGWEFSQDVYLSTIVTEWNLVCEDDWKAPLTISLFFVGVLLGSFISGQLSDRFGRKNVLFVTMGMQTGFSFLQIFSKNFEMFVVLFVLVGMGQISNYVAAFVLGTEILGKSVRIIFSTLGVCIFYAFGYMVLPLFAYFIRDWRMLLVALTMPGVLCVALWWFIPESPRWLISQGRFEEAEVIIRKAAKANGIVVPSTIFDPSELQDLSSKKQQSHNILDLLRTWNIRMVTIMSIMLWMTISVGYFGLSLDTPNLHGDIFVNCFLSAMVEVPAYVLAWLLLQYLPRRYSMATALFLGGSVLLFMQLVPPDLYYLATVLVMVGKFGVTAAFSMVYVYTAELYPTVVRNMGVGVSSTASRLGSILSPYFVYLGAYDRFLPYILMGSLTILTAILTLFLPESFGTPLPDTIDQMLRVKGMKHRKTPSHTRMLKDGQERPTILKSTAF
UniProt P41440: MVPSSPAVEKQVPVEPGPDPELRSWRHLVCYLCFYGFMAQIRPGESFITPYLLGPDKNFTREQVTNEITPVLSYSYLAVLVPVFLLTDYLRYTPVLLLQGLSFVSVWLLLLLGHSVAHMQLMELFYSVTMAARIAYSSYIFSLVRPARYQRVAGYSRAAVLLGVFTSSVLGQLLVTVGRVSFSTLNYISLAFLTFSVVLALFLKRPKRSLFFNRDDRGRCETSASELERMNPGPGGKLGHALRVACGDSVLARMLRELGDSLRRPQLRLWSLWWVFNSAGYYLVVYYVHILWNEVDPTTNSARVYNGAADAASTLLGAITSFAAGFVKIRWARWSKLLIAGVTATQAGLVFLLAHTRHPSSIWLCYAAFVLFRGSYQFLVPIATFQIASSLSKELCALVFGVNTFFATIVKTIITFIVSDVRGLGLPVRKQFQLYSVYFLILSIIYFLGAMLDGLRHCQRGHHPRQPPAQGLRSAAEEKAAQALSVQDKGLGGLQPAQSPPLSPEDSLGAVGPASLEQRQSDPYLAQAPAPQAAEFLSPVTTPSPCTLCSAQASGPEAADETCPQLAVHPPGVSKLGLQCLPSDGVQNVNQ
UniProt Q9NTN3, whole entry, looked up: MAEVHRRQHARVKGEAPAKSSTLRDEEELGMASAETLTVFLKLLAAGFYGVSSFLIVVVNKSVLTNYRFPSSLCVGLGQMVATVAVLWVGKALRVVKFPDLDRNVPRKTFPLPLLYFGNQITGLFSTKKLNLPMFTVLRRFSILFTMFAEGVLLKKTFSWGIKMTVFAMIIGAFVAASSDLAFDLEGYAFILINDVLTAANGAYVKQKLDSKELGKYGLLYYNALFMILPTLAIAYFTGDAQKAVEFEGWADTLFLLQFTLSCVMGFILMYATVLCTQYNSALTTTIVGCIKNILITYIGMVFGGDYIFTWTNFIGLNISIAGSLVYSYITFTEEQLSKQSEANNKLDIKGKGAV
UniProt Q96NT5: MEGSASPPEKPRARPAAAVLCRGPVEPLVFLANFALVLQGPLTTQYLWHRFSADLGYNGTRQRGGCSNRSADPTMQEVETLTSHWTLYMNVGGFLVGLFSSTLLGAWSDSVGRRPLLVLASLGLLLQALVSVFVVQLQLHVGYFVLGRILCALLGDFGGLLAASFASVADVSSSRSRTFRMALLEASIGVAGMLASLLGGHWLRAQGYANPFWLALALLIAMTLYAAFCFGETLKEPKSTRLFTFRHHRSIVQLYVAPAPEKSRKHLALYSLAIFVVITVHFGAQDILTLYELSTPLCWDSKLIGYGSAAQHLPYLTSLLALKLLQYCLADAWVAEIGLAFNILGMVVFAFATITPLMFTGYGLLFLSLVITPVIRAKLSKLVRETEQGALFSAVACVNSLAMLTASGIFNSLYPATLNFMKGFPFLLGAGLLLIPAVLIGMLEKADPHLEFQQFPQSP
UniProt Q9NY26: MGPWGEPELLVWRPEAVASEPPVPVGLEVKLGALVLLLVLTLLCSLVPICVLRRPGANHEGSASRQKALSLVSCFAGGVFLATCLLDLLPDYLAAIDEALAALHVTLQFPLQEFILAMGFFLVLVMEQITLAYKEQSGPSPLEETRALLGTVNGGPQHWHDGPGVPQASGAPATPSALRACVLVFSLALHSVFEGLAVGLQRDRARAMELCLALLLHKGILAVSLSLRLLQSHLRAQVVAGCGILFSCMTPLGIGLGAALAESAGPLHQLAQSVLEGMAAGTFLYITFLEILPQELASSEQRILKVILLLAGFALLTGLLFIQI
UniProt Q7Z769: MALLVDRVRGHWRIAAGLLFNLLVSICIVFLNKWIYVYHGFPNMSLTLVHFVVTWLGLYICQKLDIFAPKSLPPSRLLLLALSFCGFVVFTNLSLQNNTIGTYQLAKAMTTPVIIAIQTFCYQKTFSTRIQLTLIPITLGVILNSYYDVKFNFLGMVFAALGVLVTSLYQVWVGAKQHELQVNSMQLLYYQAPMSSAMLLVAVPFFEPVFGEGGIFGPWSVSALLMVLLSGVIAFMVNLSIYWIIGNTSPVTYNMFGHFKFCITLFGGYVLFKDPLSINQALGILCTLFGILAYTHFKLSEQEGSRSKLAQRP
UniProt Q96GZ6: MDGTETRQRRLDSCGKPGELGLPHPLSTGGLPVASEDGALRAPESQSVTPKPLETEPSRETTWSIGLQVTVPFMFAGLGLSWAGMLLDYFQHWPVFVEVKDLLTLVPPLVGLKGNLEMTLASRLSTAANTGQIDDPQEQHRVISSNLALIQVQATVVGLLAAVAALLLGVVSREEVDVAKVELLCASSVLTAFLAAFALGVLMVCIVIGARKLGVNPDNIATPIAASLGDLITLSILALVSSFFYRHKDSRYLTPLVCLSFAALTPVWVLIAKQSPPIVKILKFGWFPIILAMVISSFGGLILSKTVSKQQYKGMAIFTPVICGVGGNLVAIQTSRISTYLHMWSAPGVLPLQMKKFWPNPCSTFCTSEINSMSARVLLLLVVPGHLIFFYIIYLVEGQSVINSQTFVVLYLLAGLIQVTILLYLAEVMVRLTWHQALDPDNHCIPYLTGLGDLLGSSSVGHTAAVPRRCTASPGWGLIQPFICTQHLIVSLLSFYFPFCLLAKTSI
UniProt Q969S0: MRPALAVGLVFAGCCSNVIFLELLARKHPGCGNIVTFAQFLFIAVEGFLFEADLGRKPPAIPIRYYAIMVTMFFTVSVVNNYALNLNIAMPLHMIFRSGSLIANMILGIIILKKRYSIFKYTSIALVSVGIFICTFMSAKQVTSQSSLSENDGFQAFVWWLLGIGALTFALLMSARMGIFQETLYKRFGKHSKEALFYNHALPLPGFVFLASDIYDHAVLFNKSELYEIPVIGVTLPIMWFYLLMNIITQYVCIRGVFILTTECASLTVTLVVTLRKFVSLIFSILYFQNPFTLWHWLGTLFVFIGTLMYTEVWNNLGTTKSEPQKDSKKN
UniProt P14672: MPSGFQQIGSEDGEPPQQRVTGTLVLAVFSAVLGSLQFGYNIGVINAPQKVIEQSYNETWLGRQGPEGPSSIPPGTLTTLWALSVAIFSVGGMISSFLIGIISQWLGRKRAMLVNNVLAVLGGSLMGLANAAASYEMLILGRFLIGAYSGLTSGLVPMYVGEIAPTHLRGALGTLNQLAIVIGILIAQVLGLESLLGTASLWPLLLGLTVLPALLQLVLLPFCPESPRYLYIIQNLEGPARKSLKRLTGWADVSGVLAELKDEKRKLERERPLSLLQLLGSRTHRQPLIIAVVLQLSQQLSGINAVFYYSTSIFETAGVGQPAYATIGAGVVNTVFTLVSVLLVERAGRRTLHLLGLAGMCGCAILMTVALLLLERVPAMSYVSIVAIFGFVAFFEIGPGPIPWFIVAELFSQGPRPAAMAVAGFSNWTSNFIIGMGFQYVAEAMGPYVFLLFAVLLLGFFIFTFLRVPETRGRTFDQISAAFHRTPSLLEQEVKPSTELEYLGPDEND
UniProt Q9BS91: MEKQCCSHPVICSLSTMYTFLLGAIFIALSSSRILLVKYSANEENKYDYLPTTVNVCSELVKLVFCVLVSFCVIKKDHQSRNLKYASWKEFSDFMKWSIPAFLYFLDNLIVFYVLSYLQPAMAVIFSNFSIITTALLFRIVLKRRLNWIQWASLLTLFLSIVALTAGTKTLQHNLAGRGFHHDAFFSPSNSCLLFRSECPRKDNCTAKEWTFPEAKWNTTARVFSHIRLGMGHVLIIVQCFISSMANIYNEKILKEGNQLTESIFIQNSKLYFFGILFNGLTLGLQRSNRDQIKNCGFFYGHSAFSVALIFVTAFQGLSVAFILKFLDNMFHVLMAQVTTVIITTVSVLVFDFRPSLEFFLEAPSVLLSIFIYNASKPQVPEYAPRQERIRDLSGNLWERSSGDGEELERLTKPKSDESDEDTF

Columns and labels:
Assay in all cases: log2 fold change, soluble protein after heating vs DMSO (PISA); higher = thermal stabilisation; K562 cells, 10 uM, 30 min; active = over 0.2 and 3.5 SD of the protein, either way, in both replicates (recomputed)
[1] = compound: Cc1sc2c(c1C)C(c1ccc(Cl)cc1)=N[C@@H](CC(=O)OC(C)(C)C)c1nnc(C)n1-2
In short: (§1)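 K562 cells at 2×10^6 cells/mL were treated for 30 min with 10 μM compound, and aliquots were heated for 3 min over 48°C-58°C before pooling. Extraction used PBS with 0.5% NP-40 at 4°C, and soluble protein was the supernatant after 21,000xg for 90 min, measured by TMTpro 16plex LC-MS/MS with channel sums equalised. Thermal stability values, relative to control samples and from duplicates, are log2 fold changes.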

[2] = compound: CC1=C(SC2=C1C(=N[C@H](C3=NN=C(N32)C)CC(=O)N)C4=CC=C(C=C4)Cl)C
In short: as §1

[3] = compound: CC1=C2C(=CC=C1)N=C(N(C2=O)C3=CC=CC=C3C)CN4C=NC5=C(N=CN=C54)N
In short: as §1

[4] = compound: c1ccc([C@@H]2C[C@H]2NC2CCNCC2)cc1
In short: as §1

[5] = compound: C1=CC=C(C=C1)[C@H](COC2=CC3=C(C=C2)NC(=O)N3)NC(=O)C4=CC=CN(C4=O)CC5=CC(=C(C=C5)F)F
In short: as §1

Measured: log2 fold change

SLC35G1 (UniProt Q2M3R5)
inactive: [1] -0.163

SLC25A35 (UniProt Q3KQZ1)
inactive: [2] -0.029 | [3] 0.048 | [1] 0.022 | [4] 0.028

SLC25A30 (UniProt Q5SVS4)
inactive: [2] 0.076 | [3] 0.056 | [4] -0.021

SLC12A9 (UniProt Q9BXP2)
inactive: [5] 0.013 | [2] -0.002 | [3] 0.014 | [1] -0.035 | [4] 0.028

SLC6A19 (UniProt Q695T7)
inactive: [2] -0.166 | [4] 0.15

Fetched one by one from the entries so far, 3 records:
SLC12A9 (UniProt Q9BXP2)
inactive: [5] 0.013 | [2] -0.002 | [3] 0.014 | [1] -0.035 | [4] 0.028

SLC25A30 (UniProt Q5SVS4)
inactive: [2] 0.076 | [3] 0.056 | [4] -0.021

SLC6A19 (UniProt Q695T7)
inactive: [2] -0.166 | [4] 0.15

Next part

SLC35C2 isoform 3 (UniProt Q9NQQ7)
inactive: [5] -0.049 | [2] -0.055 | [4] -0.174

SLC25A29 (UniProt Q8N8R3)
inactive: [1] 0.038

SLC44A2 isoform 2 (UniProt Q8IWA5)
inactive: [5] 0.002 | [2] 0.077 | [3] -0.022 | [1] -0.045 | [4] 0.065

SLC52A2 (UniProt Q9HAB3)
inactive: [5] 0.001 | [1] -0.349

SLC38A1 (UniProt Q9H2H9)
inactive: [5] -0.041 | [2] 0.018 | [3] -0.003 | [1] -0.049 | [4] -0.035

SLC35E2B (UniProt P0CK96)
inactive: [5] -0.069 | [2] -0.162 | [3] -0.016 | [4] 0.183

SLC26A2 (UniProt P50443)
inactive: [3] -0.023

SLC10A7 isoform 1 (UniProt Q0GE19)
inactive: [5] -0.187 | [1] 0.058

SLC22A5 isoform 3 (UniProt O76082)
inactive: [5] 0.206 | [3] 0.019

SLC39A9 (UniProt Q9NUM3)
inactive: [2] 0.323 | [3] 0.322 | [1] -0.121 | [4] -0.093

SLC19A1 (UniProt P41440)
inactive: [5] -0.025 | [2] 0.065 | [3] 0.045 | [1] -0.013 | [4] 0.017

SLC35D1 (UniProt Q9NTN3)
inactive: [2] 0.092 | [3] 0.011 | [1] -0.096 | [4] 0.06

SLC22A23 (UniProt A1A5C7)
inactive: [2] 0.144 | [4] -0.139

SLC46A1 (UniProt Q96NT5)
inactive: [2] -0.09 | [3] 0.075 | [1] 0.024 | [4] 0.256

SLC39A1 (UniProt Q9NY26)
inactive: [2] -0.156 | [4] 0.053

SLC35E3 (UniProt Q7Z769)
inactive: [1] -0.043

SLC25A5 (UniProt P05141)
inactive: [5] -0.014 | [2] 0.013 | [3] 0.026 | [1] -0.076 | [4] -0.027

SLC3A2 (UniProt F5H867)
inactive: [5] -0.097 | [1] 0.067

SLC41A3 isoform 9 (UniProt Q96GZ6)
inactive: [5] -0.115 | [1] -0.052

SLC10A3 (UniProt P09131)
inactive: [5] -0.013 | [1] -0.146

SLC25A38 (UniProt Q96DW6)
inactive: [5] 0.014 | [2] 0.034 | [3] -0.035 | [1] -0.035 | [4] 0.014

SLC2A13 (UniProt Q96QE2)
inactive: [5] -0.016 | [2] 0.065 | [3] 0.143 | [1] 0.034 | [4] -0.027

SLC35B4 (UniProt Q969S0)
inactive: [5] 0.061 | [3] -0.069 | [1] -0.137

SLC35E1 (UniProt Q96K37)
inactive: [5] -0.024 | [2] -0.03 | [3] -0.061 | [1] 0.042 | [4] 0.106

SLC2A4 (UniProt P14672)
inactive: [5] 0.218 | [2] 0 | [1] -0.079 | [4] 0.136

SLC35A5 (UniProt Q9BS91)
inactive: [2] 0.082 | [1] -0.013 | [4] 0.01
